Measurements from patent US20230212120A1, “SMALL MOLECULE INHIBITORS OF GRK5 AND GRK5 SUBFAMILY MEMBERS AND USES THEREOF” (The Regents of the University of Michigan, priority 2020, published 2023).
Some results were stated once for a whole list of compounds, not compound by compound.

Assay: Metabolic stability in mouse liver microsomes
Type: in vitro ADME

Row | SMILES | Metabolic stability
1 | C=CS(=O)(=O)Nc1c(C)[nH]c(/C=C2\C(=O)Nc3ccc(C(=O)N[C@H](C)c4ccccc4)cc32)c1C [Compound 9c, (R,Z)-3-((3,5-dimethyl-4-(vinylsulfonamido)-1H-pyrrol-2-yl)methylene)-2-oxo-N-(1-phenylethyl)indoline-5-carboxamide] | less than 10 minutes
2 | Cc1[nH]c(/C=C2\C(=O)Nc3ccc(C(=O)N[C@H](C)c4ccc(F)cc4)cc32)c(C)c1NC(=O)CCl [Compound 9j, (R,Z)-3-((4-(2-chloroacetamido)-3,5-dimethyl-1H-pyrrol-2-yl)methylene)-N-(1-(4-fluorophenyl)ethyl)-2-oxoindoline-5-carboxamide] | less than 10 minutes
3 | Cc1[nH]c(/C=C2\C(=O)Nc3ccc(C(=O)N[C@H](C)c4ccccc4)cc32)c(C)c1NC(=O)CCl [Compound 9e, (R,Z)-3-((4-(2-chloroacetamido)-3,5-dimethyl-1H-pyrrol-2-yl)methylene)-2-oxo-N-(1-phenylethyl)indoline-5-carboxamide] | less than 10 minutes
